PubChem BioAssay AID1224826 | NIAID – 2016
Shown is a random part of about 17,000 reagents tested. Of all reagents, about 1,110 (6.6%) were called active. 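Active means lowered or raised reporter signal; replicate intensities are raw and not normalised per plate.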 Unmarked entries are inactive. The numbers tell different reagents against one gene apart. Further read-outs or replicates are left out here.

Aim: 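Knock-downs that raise or lower Tnf reporter signal after endotoxin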 (primary screen)
Cells: RAW264.7 G9 macrophages from mouse bearing reporters for p65 (GFP) and the Tnf promoter (mCherry)
Knock-down reagent: siRNA pool against mouse genes, 100 nM
Duration: 16 h of LPS stimulation, after 2 days of siRNA transfection
Challenge: bacterial lipopolysaccharide (Salmonella minnesota R595), 10 ng/ml
Measured: 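Imaged Tnf reporter mCherry in nuclei, minus background, normalised per plate to the median and expressed as robust z-scores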
Scale: Tnf reporter robust z-score: higher = stronger Tnf promoter reporter signal after LPS
Hit rule: 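Called active when robust z-score is at most -1.3, matching the median of the Tlr4 knock-down control, or over 3; control wells and wells with under 50 cells never active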
Meaning of the calls: active = Tnf reporter clearly lowered or raised; inactive = no clear change in Tnf reporter

gene | reagent no. | Tnf reporter robust z-score | fewer than 50 cells in well
Itgb2l (integrin beta 2-like) | 1 | 1.02 | enough cells in well
Gk5 (glycerol kinase 5) | 1 | 0.58 | enough cells in well
Eif2b3 (eukaryotic translation initiation factor 2B, subunit 3) | 1 | -0.37 | enough cells in well
Duxbl1 (double homeobox B-like 1) | 1 | – | fewer than 50 cells per well; well left out of calls
Or4c108 (olfactory receptor family 4 subfamily C member 108) | 1 | 0.43 | enough cells in well
Fkrp (fukutin related protein) | 1 | 0.15 | enough cells in well
B3gat1 (beta-1,3-glucuronyltransferase 1) | 1 | -0.91 | enough cells in well
Cdcp2 (CUB domain containing protein 2) | 1 | -1.04 | enough cells in well
Cct8l1 (chaperonin containing TCP1 subunit 8-like 1) | 1 | 3.28 (active) | enough cells in well
Vsnl1 (visinin-like 1) | 1 | -0.39 | enough cells in well
Pisd (phosphatidylserine decarboxylase) | 1 | -1.03 | enough cells in well
Ifit1bl2 | 1 | -0.3 | enough cells in well
1110006O24Rik (RIKEN cDNA 1110006O24 gene) | 1 | – | fewer than 50 cells per well; well left out of calls
6030445D17Rik (RIKEN cDNA 6030445D17 gene) | 1 | -0.53 | enough cells in well
Tac1 (tachykinin 1) | 1 | -1.07 | enough cells in well
H2bc9 (H2B clustered histone 9) | 1 | -0.83 | enough cells in well
Gpr183 (G protein-coupled receptor 183) | 1 | 0.04 | enough cells in well
Uimc1 (ubiquitin interaction motif containing 1) | 1 | -0.71 | enough cells in well
Evpl (envoplakin) | 1 | 0.44 | enough cells in well
4930432E11Rik (RIKEN cDNA 4930432E11 gene) | 1 | 0.11 | enough cells in well
Nr2c2 (nuclear receptor subfamily 2, group C, member 2) | 1 | -0.7 | enough cells in well
Ift81 (intraflagellar transport 81) | 1 | 2.74 | enough cells in well
Scn3b (sodium channel, voltage-gated, type III, beta) | 1 | -1.67 (active) | enough cells in well
Rhox11 (reproductive homeobox 11) | 1 | 0.13 | enough cells in well
Mustn1 (musculoskeletal, embryonic nuclear protein 1) | 1 | -0.75 | enough cells in well
Sstr2 (somatostatin receptor 2) | 1 | -0.96 | enough cells in well
Zmat5 (zinc finger, matrin type 5) | 1 | -0.25 | enough cells in well
Dnajc1 (DnaJ heat shock protein family (Hsp40) member C1) | 1 | 1.76 | enough cells in well
Defb7 (defensin beta 7) | 1 | 4.14 (active) | enough cells in well
Smc1b (structural maintenance of chromosomes 1B) | 1 | – | fewer than 50 cells per well; well left out of calls
Srsf19 (serine and arginine rich splicing factor 19) | 1 | – | fewer than 50 cells per well; well left out of calls
Cyp4a14 (cytochrome P450, family 4, subfamily a, polypeptide 14) | 1 | -0.58 | enough cells in well
Gimap1 (GTPase, IMAP family member 1) | 1 | 1.68 | enough cells in well
1700049L16Rik (RIKEN cDNA 1700049L16 gene) | 1 | -1.01 | enough cells in well
Dok1 (docking protein 1) | 1 | -0.84 | enough cells in well
Ldhd (lactate dehydrogenase D) | 1 | -1.77 (active) | enough cells in well
Pld2 (phospholipase D2) | 1 | 0.03 | enough cells in well
Ccl21d (C-C motif chemokine ligand 21D) | 1 | -0.37 | enough cells in well
Gpi1 (glucose-6-phosphate isomerase 1) | 1 | -0.44 | enough cells in well
Cntnap1 (contactin associated protein-like 1) | 1 | -0.15 | enough cells in well
Arl16 (ADP-ribosylation factor-like 16) | 1 | -1.03 | enough cells in well
Prss28 (serine protease 28) | 1 | -0.85 | enough cells in well
Slc7a15 | 1 | – | fewer than 50 cells per well; well left out of calls
Camta2 (calmodulin binding transcription activator 2) | 1 | -0.47 | enough cells in well
Igf2bp3 (insulin-like growth factor 2 mRNA binding protein 3) | 1 | -0.03 | enough cells in well
Coa5 (cytochrome C oxidase assembly factor 5) | 1 | – | fewer than 50 cells per well; well left out of calls
Coa5 (cytochrome C oxidase assembly factor 5) | 2 | 0.64 | enough cells in well
Sel1l (sel-1 suppressor of lin-12-like (C. elegans)) | 1 | 0.05 | enough cells in well
Fbln7 (fibulin 7) | 1 | 0.53 | enough cells in well
Erich5 (glutamate rich 5) | 1 | -0.09 | enough cells in well
Gprc5d (G protein-coupled receptor, family C, group 5, member D) | 1 | -0.6 | enough cells in well
Hck (Hck proto-oncogene, Src family tyrosine kinase) | 1 | 0.01 | enough cells in well
Vmn1r205 (vomeronasal 1 receptor 205) | 1 | -0.77 | enough cells in well
Adam7 (a disintegrin and metallopeptidase domain 7) | 1 | 0.12 | enough cells in well
Raver1 (ribonucleoprotein, PTB-binding 1) | 1 | 0.25 | enough cells in well
Tmt1b (thiol methyltransferase 1B) | 1 | 0.42 | enough cells in well
Vipr1 (vasoactive intestinal peptide receptor 1) | 1 | 0.56 | enough cells in well
Coa6 (cytochrome c oxidase assembly factor 6) | 1 | – | fewer than 50 cells per well; well left out of calls

Ordered by “Tnf reporter robust z-score” (high to low): some entries from above.
gene | reagent no. | Tnf reporter robust z-score | fewer than 50 cells in well
Hck (Hck proto-oncogene, Src family tyrosine kinase) | 1 | 0.01 | enough cells in well
Erich5 (glutamate rich 5) | 1 | -0.09 | enough cells in well
Gprc5d (G protein-coupled receptor, family C, group 5, member D) | 1 | -0.6 | enough cells in well
Vmn1r205 (vomeronasal 1 receptor 205) | 1 | -0.77 | enough cells in well
